Four molecules from article PMC4427335 can be followed below.

The chains behind the UniProt entries cited, without tags or fusion partners. Where a name states a change or a piece, a line headed by the entry shows the natural chain unless it says otherwise. Residues count along the entry.
UniProt P62196: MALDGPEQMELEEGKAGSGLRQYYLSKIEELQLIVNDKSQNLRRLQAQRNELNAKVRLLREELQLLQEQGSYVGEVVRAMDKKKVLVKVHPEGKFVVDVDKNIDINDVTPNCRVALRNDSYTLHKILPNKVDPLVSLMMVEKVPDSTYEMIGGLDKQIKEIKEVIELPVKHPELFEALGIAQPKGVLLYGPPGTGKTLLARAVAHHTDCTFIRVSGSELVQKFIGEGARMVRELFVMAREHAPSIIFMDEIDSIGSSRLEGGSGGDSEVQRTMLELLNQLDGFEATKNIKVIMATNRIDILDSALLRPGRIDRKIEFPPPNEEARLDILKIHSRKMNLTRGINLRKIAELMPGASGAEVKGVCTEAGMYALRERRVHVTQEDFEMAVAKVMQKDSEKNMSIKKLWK
PSMC5-NT: residues 1-151 of P62196
UniProt B2RWS6: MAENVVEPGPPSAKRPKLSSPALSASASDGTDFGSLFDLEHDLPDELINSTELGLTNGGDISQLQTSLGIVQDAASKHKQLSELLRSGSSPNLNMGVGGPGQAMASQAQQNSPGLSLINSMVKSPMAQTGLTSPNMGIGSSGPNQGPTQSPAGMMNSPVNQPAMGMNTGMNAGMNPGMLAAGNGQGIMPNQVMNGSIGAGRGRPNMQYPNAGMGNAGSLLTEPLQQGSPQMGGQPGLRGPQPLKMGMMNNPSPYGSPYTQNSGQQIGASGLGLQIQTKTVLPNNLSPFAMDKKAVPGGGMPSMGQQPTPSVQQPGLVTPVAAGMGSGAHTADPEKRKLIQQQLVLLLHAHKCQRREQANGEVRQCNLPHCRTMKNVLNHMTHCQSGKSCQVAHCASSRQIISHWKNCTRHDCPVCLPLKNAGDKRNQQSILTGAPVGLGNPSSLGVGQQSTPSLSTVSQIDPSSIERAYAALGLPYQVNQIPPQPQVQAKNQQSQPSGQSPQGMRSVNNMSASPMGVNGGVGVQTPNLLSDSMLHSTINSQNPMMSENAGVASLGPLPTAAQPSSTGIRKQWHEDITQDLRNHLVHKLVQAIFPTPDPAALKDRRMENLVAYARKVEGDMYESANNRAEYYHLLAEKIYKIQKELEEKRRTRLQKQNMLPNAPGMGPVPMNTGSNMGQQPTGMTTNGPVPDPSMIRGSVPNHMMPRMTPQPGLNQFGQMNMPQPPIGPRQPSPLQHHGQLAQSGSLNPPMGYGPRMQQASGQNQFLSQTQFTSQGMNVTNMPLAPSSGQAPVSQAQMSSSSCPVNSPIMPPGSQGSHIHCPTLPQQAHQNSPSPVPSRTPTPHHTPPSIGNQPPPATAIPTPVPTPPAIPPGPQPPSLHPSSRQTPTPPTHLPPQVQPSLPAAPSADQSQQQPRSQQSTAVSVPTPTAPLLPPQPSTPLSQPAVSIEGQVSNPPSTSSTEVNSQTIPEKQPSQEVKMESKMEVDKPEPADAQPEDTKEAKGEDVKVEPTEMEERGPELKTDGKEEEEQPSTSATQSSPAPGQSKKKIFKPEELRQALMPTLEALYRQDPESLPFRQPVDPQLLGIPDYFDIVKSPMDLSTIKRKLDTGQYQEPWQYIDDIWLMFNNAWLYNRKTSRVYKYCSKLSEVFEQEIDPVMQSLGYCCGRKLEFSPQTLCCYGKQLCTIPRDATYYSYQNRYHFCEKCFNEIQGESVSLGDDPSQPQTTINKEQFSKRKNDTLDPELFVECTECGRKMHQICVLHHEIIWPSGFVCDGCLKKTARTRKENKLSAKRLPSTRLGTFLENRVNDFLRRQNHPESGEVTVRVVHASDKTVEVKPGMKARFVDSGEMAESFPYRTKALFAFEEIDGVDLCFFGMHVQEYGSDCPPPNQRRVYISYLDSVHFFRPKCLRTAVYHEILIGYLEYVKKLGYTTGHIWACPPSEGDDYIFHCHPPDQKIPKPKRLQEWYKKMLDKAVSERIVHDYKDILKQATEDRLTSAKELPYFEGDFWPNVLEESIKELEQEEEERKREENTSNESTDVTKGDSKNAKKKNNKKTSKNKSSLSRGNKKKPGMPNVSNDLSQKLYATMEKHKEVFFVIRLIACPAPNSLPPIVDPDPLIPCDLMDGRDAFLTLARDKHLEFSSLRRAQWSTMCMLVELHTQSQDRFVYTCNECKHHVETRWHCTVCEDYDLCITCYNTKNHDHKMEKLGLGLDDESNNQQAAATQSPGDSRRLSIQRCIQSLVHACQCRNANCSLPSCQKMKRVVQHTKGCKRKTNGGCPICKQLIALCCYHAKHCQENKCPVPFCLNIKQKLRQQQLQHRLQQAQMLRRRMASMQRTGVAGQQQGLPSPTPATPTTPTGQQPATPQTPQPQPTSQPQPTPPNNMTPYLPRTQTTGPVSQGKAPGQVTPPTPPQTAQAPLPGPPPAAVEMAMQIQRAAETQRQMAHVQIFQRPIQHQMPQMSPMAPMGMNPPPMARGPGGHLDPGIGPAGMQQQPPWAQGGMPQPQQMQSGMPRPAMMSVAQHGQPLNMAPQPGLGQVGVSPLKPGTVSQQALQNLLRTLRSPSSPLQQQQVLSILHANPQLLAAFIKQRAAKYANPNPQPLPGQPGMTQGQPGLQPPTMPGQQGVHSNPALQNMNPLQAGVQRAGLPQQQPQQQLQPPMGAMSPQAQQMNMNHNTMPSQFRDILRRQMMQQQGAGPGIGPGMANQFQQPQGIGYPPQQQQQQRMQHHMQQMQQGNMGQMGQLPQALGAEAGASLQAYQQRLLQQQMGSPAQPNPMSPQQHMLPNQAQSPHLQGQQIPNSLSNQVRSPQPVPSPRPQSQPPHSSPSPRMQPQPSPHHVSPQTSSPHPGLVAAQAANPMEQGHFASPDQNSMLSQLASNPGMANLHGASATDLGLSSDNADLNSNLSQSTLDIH
UniProt P45481: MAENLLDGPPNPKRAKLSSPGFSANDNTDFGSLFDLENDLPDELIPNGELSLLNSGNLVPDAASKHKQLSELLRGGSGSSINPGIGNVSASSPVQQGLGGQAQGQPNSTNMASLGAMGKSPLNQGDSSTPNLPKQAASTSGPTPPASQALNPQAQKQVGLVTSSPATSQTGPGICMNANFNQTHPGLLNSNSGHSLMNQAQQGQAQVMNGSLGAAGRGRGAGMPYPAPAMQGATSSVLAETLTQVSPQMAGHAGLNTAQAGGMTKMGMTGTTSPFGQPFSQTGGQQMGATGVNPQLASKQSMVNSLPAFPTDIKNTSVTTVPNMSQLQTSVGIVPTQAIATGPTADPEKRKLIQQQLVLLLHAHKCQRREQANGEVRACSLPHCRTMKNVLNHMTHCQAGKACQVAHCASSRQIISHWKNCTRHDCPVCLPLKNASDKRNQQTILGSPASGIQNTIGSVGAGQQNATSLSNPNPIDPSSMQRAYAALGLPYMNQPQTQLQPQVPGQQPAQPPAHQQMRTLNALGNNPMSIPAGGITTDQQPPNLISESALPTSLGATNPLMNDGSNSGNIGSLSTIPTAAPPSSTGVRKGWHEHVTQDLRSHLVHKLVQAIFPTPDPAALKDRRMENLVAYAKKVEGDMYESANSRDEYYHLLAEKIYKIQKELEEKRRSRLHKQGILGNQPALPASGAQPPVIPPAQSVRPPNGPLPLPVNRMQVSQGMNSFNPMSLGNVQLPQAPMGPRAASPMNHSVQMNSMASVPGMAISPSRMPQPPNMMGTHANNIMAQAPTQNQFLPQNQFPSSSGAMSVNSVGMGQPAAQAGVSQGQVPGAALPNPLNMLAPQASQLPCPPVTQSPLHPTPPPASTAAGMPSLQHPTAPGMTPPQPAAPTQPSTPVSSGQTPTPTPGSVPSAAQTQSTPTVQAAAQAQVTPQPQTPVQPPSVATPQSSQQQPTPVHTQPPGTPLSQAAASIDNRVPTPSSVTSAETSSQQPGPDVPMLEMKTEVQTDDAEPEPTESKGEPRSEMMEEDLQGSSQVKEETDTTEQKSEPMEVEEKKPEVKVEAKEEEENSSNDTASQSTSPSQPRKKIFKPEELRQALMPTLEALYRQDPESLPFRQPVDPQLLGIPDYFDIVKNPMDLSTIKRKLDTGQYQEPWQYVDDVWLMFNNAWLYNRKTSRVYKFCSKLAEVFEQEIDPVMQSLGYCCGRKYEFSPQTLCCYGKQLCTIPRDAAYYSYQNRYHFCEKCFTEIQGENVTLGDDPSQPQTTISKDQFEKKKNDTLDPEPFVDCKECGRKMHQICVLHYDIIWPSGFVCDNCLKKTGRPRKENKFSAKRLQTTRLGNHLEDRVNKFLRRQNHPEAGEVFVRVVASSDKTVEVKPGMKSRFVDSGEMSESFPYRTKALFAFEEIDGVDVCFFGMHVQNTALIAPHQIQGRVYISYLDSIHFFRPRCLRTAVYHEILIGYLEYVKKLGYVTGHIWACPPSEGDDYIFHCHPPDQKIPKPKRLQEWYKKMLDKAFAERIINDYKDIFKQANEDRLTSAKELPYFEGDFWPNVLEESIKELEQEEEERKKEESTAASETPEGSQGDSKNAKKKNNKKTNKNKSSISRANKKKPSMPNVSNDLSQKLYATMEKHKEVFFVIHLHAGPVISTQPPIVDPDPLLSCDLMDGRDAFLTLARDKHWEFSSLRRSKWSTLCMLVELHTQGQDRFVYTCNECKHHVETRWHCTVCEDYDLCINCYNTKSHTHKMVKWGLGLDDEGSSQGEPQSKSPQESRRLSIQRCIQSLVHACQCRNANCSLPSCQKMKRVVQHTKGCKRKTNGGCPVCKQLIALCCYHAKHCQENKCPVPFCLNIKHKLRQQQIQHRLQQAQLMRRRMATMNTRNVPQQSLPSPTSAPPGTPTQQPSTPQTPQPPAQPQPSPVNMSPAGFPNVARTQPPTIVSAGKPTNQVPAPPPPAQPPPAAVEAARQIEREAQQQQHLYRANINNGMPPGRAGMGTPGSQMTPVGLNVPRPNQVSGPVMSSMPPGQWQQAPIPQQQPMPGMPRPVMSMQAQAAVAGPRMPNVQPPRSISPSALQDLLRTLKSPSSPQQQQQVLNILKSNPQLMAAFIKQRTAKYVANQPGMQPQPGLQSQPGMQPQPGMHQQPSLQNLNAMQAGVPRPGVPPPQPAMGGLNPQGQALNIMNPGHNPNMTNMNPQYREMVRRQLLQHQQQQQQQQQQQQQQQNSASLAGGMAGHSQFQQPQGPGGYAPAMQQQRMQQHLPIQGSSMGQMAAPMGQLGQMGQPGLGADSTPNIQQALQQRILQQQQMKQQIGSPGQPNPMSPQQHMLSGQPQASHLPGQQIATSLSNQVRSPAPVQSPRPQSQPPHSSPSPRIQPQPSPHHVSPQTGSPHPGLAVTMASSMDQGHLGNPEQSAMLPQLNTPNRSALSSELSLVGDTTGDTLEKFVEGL

Where two headings read alike, the source gives them in different places. Results are given in words; binding and its absence hold for the method and conditions named. In cells and extracts the contact can be indirect. Some entries that bind do so weakly or less than the wild type. For part of these data: Tags and fused reporters may be left off the sequences shown.

The target in test [1] is endogenous PSMC5, mouse nucleus accumbens (mouse (endogenous in nucleus accumbens)) (UniProt P62196). In words: co-IP; nuclear fractions of punch-dissected mouse NAc after chronic cocaine (20 mg/kg IP daily for 7 days, 24 hr after the last injection); Nuclear Complex Co-IP kit (Active Motif); immunoprecipitation with anti-PSMC5, anti-CBP, anti-p300 or anti-BRG1; Western blot with anti-FosB/ΔFosB or anti-BRG1; all proteins endogenous.

For another test, the target named is FLAG-tagged PSMC5 (UniProt P62196). Kind of test: co-IP; Neuro 2A cells co-transfected with ΔFosB or ΔFosB-LZM and FLAG-tagged PSMC5 or its mutants; lysed in RIPA buffer two days later; immunoprecipitation with anti-FLAG (nonimmune IgG as control), Protein G beads, 3 hr at 4°C; Western blot with anti-FosB/ΔFosB. (A western blot detects proteins with antibodies after separation by electrophoresis.)

In another test the target is PSMC5-NT (UniProt P62196). The description is as above.
For test [2], the target named is p300, mouse nucleus accumbens (mouse (endogenous in nucleus accumbens)) (UniProt B2RWS6). Kind of test: co-IP; nuclear fractions of punch-dissected mouse NAc after chronic cocaine (20 mg/kg IP daily for 7 days, 24 hr after the last injection); Nuclear Complex Co-IP kit (Active Motif); immunoprecipitation with anti-PSMC5, anti-CBP, anti-p300 or anti-BRG1; Western blot with anti-FosB/ΔFosB or anti-BRG1; all proteins endogenous.

In test [3] the target is endogenous PSMC5, mouse nucleus accumbens (mouse (endogenous in nucleus accumbens)) (UniProt P62196). Described as above. The source holds these as a separate data set.
In test [4] the target is BRG1, mouse nucleus accumbens (mouse (endogenous in nucleus accumbens)) (UniProt Q3TKT4). The description is as above.
Substrate in test [5]: CBP (CREB binding protein), mouse nucleus accumbens (mouse (endogenous in nucleus accumbens)) (UniProt P45481)
The test is described as above.

Substrate in test [6]: CBP (CREB binding protein), in Neuro2A cells (mouse (endogenous in Neuro2A)) (UniProt P45481)
Kind of test: co-IP; Neuro2A cells transfected with MYC-tagged ΔFosB forms or FLAG-tagged PSMC5 forms; cell extracts immunoprecipitated with anti-CBP or anti-p300 antibody (endogenous CBP, p300); Western blot with anti-MYC or anti-FLAG.

The target of test [7] is p300, in Neuro2A cells (mouse (endogenous in Neuro2A)) (UniProt B2RWS6). The description is as above.

Regarding “BRG1, mouse nucleus accumbens (from UniProt Q3TKT4 1-1613)”, in test [1], the binding result is listed as “binds”.

B1: ΔFosB (pcDNA3.1-ΔFosB) (protein, UniProt P13346-2 1-237)
chain: MFQAFPGDYDSGSRCSSSPSAESQYLSSVDSFGSPPTAAASQECAGLGEMPGSFVPTVTAITTSQDLQWLVQPTLISSMAQSQGQPLASQPPAVDPYDMPGTSYSTPGLSAYSTGGASGSGGPSTSTTTSGPVSARPARARPRRPREETLTPEEEEKRRVRRERNKLAAAKCRNRRRELTDRLQAETDQLEEEKAELESEIAELQKEKERLEFVLVAHKPGCKIPYEEGPGPGPLAE
With B1, the binding entry with FLAG-tagged PSMC5 and in the test with PSMC5-NT was “binds” throughout.

B2: endogenous ΔFosB, mouse nucleus accumbens (protein, UniProt P13346-2 1-237)
chain: B1 chain
For the molecule B2, the binding entry in [2], in test [3], in test [4] and in test [5] was “binds” each time.

B3: MYC-tagged ΔFosB (protein, UniProt P13346-2 1-237)
chain: B1 chain
In the case of B3, the binding result in test [6] and in [7] was “binds” in each case.
